From a melanoma drug combination screen (doi:10.1371/journal.pone.0140310); values rounded.

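The test systems are human melanoma cell lines, treated with two drugs together for 72 h and then stained and imaged. Values are the share of nuclei positive for cleaved PARP as a percentage of the same share in the DMSO control: 100 is the control level, higher means more apoptosis. Every drug was used at one fixed concentration, the higher of two screened. The file gives one value for each pair and line, without errors, so small differences may be noise. The marker varies much from line to line, for technical or biological reasons.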
An unselected part of the screen is shown.

First drug in all entries: PF-04217903, 5000 nM, OCCn1cc(-c2cnc3nnn(Cc4ccc5ncccc5c4)c3n2)cn1

Compounds and concentrations:
AZD7762 (100 nM): NC(=O)Nc1cc(-c2cccc(F)c2)sc1C(=O)N[C@H]1CCCNC1
T0901317 (7000 nM): O=S(=O)(c1ccccc1)N(CC(F)(F)F)c1ccc(C(O)(C(F)(F)F)C(F)(F)F)cc1
darinaparsin (2000 nM): C[As](C)SC[C@H](NC(=O)CC[C@H](N)C(=O)O)C(=O)NCC(=O)O
ruxolitinib (5000 nM): N#CC[C@H](C1CCCC1)n1cc(-c2ncnc3[nH]ccc23)cn1
dasatinib (20 nM): Cc1nc(Nc2ncc(C(=O)Nc3c(C)cccc3Cl)s2)cc(N2CCN(CCO)CC2)n1
OSI-906 (2000 nM): C[C@]1(O)C[C@@H](c2nc(-c3ccc4ccc(-c5ccccc5)nc4c3)c3c(N)nccn32)C1
cisplatin (8000 nM): N.N.[Cl][Pt][Cl]
veliparib (7000 nM): C[C@]1(c2nc3c(C(N)=O)cccc3[nH]2)CCCN1
GW0742 (10000 nM): Cc1cc(SCc2sc(-c3ccc(C(F)(F)F)c(F)c3)nc2C)ccc1OCC(=O)O
TCS401 (8330 nM): O=C(O)C(=O)Nc1sc2c(c1C(=O)O)CCNC2
FK866 (50 nM): O=C(/C=C/c1cccnc1)NCCCCC1CCN(C(=O)c2ccccc2)CC1
GSK0660 (5000 nM): COC(=O)c1sccc1S(=O)(=O)Nc1ccc(Nc2ccccc2)cc1OC
LFM-A13 (10000 nM): C/C(O)=C(\C#N)C(=O)Nc1cc(Br)ccc1Br
docetaxel (0.5 nM): CC(=O)O[C@@]12CO[C@@H]1C[C@H](O)[C@@]1(C)C(=O)[C@H](O)C3=C(C)[C@@H](OC(=O)[C@H](O)[C@@H](NC(=O)OC(C)(C)C)c4ccccc4)C[C@@](O)([C@@H](OC(=O)c4ccccc4)[C@H]21)C3(C)C
JZL184 (5000 nM): O=C(Oc1ccc([N+](=O)[O-])cc1)N1CCC(C(O)(c2ccc3c(c2)OCO3)c2ccc3c(c2)OCO3)CC1
AS-252424 (5000 nM): O=C1NC(=O)/C(=C/c2ccc(-c3ccc(F)cc3O)o2)S1
nilotinib (1000 nM): Cc1cn(-c2cc(NC(=O)c3ccc(C)c(Nc4nccc(-c5cccnc5)n4)c3)cc(C(F)(F)F)c2)cn1
STA-4783 (30 nM): CN(NC(=O)CC(=O)NN(C)C(=S)c1ccccc1)C(=S)c1ccccc1
lestaurtinib (20 nM): C[C@]12O[C@H](C[C@]1(O)CO)n1c3ccccc3c3c4c(c5c6ccccc6n2c5c31)CNC4=O
GW9662 (10000 nM): O=C(Nc1ccccc1)c1cc([N+](=O)[O-])ccc1Cl
bortezomib (5 nM): CC(C)C[C@H](NC(=O)[C@H](Cc1ccccc1)NC(=O)c1cnccn1)B(O)O
vismodegib (5000 nM): CS(=O)(=O)c1ccc(C(=O)Nc2ccc(Cl)c(-c3ccccn3)c2)c(Cl)c1
CX-4945 (2000 nM): O=C(O)c1ccc2c(c1)nc(Nc1cccc(Cl)c1)c1ccncc12
PF-562271 (400 nM): CN(c1ncccc1CNc1nc(Nc2ccc3c(c2)CC(=O)N3)ncc1C(F)(F)F)S(C)(=O)=O
selumetinib (75 nM): Cn1cnc2c(F)c(Nc3ccc(Br)cc3Cl)c(C(=O)NOCCO)cc21
enzastaurin (4000 nM): Cn1cc(C2=C(c3cn(C4CCN(Cc5ccccn5)CC4)c4ccccc34)C(=O)NC2=O)c2ccccc21
NVP-TAE684 (400 nM): COc1cc(N2CCC(N3CCN(C)CC3)CC2)ccc1Nc1ncc(Cl)c(Nc2ccccc2S(=O)(=O)C(C)C)n1
indole-3-carbinol (4000 nM): OCc1c[nH]c2ccccc12
NVP-BEZ235 (20 nM): Cn1c(=O)n(-c2ccc(C(C)(C)C#N)cc2)c2c3cc(-c4cnc5ccccc5c4)ccc3ncc21
MK-2206 (2000 nM): NC1(c2ccc(-c3nc4ccn5c(=O)[nH]nc5c4cc3-c3ccccc3)cc2)CCC1
YM155 (2 nM): COCC[n+]1c2c(n(Cc3cnccn3)c1C)C(=O)c1ccccc1C2=O
decitabine (500 nM): Nc1ncn([C@H]2C[C@H](O)[C@@H](CO)O2)c(=O)n1
erlotinib (4000 nM): C#Cc1cccc(Nc2ncnc3cc(OCCOC)c(OCCOC)cc23)c1
pioglitazone (10000 nM): CCc1ccc(CCOc2ccc(CC3SC(=O)NC3=O)cc2)nc1 (stereo not shown)
everolimus (100 nM): CO[C@H]1C[C@@H]2CC[C@@H](C)[C@@](O)(O2)C(=O)C(=O)N2CCCC[C@H]2C(=O)O[C@H]([C@H](C)C[C@@H]2CC[C@@H](OCCO)[C@H](OC)C2)CC(=O)[C@H](C)/C=C(\C)[C@@H](O)[C@@H](OC)C(=O)[C@H](C)C[C@H](C)/C=C/C=C/C=C/1C

With MK-2206 the screen read SK-MEL-28: 19.2; WM1716: 90.1; LOX IMVI: 58.4; MEL-HO: 162; COLO 829: 38.6.
With darinaparsin the screen read SK-MEL-28: 207; WM1716: 142; LOX IMVI: 59.9; MEL-HO: 67.9; COLO 829: 114.
With JZL184 the screen read SK-MEL-28: 44.6; WM1716: 40.9; LOX IMVI: 45.2; MEL-HO: 21.0; COLO 829: 64.0.
With docetaxel the screen read SK-MEL-28: 349; WM1716: 1130; LOX IMVI: 2160; MEL-HO: 148; COLO 829: 530.
With cisplatin the screen read SK-MEL-28: 19.4; WM1716: 105; LOX IMVI: 83.5; MEL-HO: 74.2; COLO 829: 237.
With LFM-A13 the screen read SK-MEL-28: 60.9; WM1716: 46.2; LOX IMVI: 63.1; MEL-HO: 51.3; COLO 829: 45.0.
With selumetinib the screen read SK-MEL-28: 42.3; WM1716: 203; LOX IMVI: 37.4; MEL-HO: 79.4; COLO 829: 101.
With veliparib the screen read SK-MEL-28: 49.8; WM1716: 79.8; LOX IMVI: 165; MEL-HO: 196; COLO 829: 266.
With GW0742 the screen read SK-MEL-28: 154; WM1716: 228; LOX IMVI: 132; MEL-HO: 50.3; COLO 829: 79.5.
With NVP-TAE684 the screen read SK-MEL-28: 83.9; WM1716: 122; LOX IMVI: 90.3; MEL-HO: 54.0; COLO 829: 193.
With FK866 the screen read SK-MEL-28: 138; WM1716: 156; LOX IMVI: 129; MEL-HO: 409; COLO 829: 359.
With STA-4783 the screen read SK-MEL-28: 224; WM1716: 99.9; LOX IMVI: 165; MEL-HO: 78.2; COLO 829: 206.
With lestaurtinib the screen read SK-MEL-28: 150; WM1716: 20.3; LOX IMVI: 130; MEL-HO: 153; COLO 829: 94.7.
With erlotinib the screen read SK-MEL-28: 137; WM1716: 248; LOX IMVI: 53.9; MEL-HO: 85.5; COLO 829: 63.7.
With PF-562271 the screen read SK-MEL-28: 169; WM1716: 152; LOX IMVI: 257; MEL-HO: 74.4; COLO 829: 59.0.
With TCS401 the screen read SK-MEL-28: 59.6; WM1716: 85.7; LOX IMVI: 46.1; MEL-HO: 182; COLO 829: 65.7.
With pioglitazone the screen read SK-MEL-28: 197; WM1716: 93.0; LOX IMVI: 77.0; MEL-HO: 205; COLO 829: 21.8.
With dasatinib the screen read SK-MEL-28: 37.0; WM1716: 336; LOX IMVI: 625; MEL-HO: 77.3; COLO 829: 414.
With AS-252424 the screen read SK-MEL-28: 199; WM1716: 88.9; LOX IMVI: 82.0; MEL-HO: 50.3; COLO 829: 158.
With everolimus the screen read SK-MEL-28: 69.3; WM1716: 45.0; LOX IMVI: 141; MEL-HO: 99.1; COLO 829: 237.
With bortezomib the screen read SK-MEL-28: 564; WM1716: 10900; LOX IMVI: 1020; MEL-HO: 324; COLO 829: 3580.
With YM155 the screen read SK-MEL-28: 447; WM1716: 243; LOX IMVI: 82.9; MEL-HO: 64.9; COLO 829: 89.3.
With nilotinib the screen read SK-MEL-28: 57.3; WM1716: 133; LOX IMVI: 29.0; MEL-HO: 38.4; COLO 829: 68.7.
With T0901317 the screen read SK-MEL-28: 149; WM1716: 14.1; LOX IMVI: 124; MEL-HO: 103; COLO 829: 152.
With indole-3-carbinol the screen read SK-MEL-28: 24.2; WM1716: 69.4; LOX IMVI: 64.5; MEL-HO: 85.0; COLO 829: 117.
With GW9662 the screen read SK-MEL-28: 296; WM1716: 137; LOX IMVI: 174; MEL-HO: 50.6; COLO 829: 92.9.
With AZD7762 the screen read SK-MEL-28: 406; WM1716: 155; LOX IMVI: 86.2; MEL-HO: 84.9; COLO 829: 89.2.
With ruxolitinib the screen read SK-MEL-28: 56.6; WM1716: 136; LOX IMVI: 42.6; MEL-HO: 90.8; COLO 829: 202.
With NVP-BEZ235 the screen read SK-MEL-28: 211; WM1716: 69.6; LOX IMVI: 80.4; MEL-HO: 98.6; COLO 829: 257.
With GSK0660 the screen read SK-MEL-28: 116; WM1716: 85.1; LOX IMVI: 103; MEL-HO: 127; COLO 829: 113.
With decitabine the screen read SK-MEL-28: 80.4; WM1716: 81.6; LOX IMVI: 28.5; MEL-HO: 39.6; COLO 829: 200.
With CX-4945 the screen read SK-MEL-28: 68.8; WM1716: 273; LOX IMVI: 78.4; MEL-HO: 119; COLO 829: 193.
With OSI-906 the screen read SK-MEL-28: 43.8; WM1716: 295; LOX IMVI: 74.1; MEL-HO: 74.8; COLO 829: 141.
With enzastaurin the screen read SK-MEL-28: 313; WM1716: 116; LOX IMVI: 494; MEL-HO: 59.3; COLO 829: 30.9.
With vismodegib the screen read SK-MEL-28: 142; WM1716: 179; LOX IMVI: 87.1; MEL-HO: 129; COLO 829: 127.

The last 4 entries again:

Partner	SK-MEL-28	WM1716	LOX IMVI	MEL-HO	COLO 829
CX-4945	68.8	273	78.4	119	193
OSI-906	43.8	295	74.1	74.8	141
enzastaurin	313	116	494	59.3	30.9
vismodegib	142	179	87.1	129	127